Test results as given in publication PMC9688306.
For at least one entry, the source does not settle the construct or the ends of the probe. At least one verdict was read from the data and is not stated in words by the source.

Amino acid sequences for entries named in this document (tags omitted). Residues count along the entry.
UniProt P15941, 24-1097: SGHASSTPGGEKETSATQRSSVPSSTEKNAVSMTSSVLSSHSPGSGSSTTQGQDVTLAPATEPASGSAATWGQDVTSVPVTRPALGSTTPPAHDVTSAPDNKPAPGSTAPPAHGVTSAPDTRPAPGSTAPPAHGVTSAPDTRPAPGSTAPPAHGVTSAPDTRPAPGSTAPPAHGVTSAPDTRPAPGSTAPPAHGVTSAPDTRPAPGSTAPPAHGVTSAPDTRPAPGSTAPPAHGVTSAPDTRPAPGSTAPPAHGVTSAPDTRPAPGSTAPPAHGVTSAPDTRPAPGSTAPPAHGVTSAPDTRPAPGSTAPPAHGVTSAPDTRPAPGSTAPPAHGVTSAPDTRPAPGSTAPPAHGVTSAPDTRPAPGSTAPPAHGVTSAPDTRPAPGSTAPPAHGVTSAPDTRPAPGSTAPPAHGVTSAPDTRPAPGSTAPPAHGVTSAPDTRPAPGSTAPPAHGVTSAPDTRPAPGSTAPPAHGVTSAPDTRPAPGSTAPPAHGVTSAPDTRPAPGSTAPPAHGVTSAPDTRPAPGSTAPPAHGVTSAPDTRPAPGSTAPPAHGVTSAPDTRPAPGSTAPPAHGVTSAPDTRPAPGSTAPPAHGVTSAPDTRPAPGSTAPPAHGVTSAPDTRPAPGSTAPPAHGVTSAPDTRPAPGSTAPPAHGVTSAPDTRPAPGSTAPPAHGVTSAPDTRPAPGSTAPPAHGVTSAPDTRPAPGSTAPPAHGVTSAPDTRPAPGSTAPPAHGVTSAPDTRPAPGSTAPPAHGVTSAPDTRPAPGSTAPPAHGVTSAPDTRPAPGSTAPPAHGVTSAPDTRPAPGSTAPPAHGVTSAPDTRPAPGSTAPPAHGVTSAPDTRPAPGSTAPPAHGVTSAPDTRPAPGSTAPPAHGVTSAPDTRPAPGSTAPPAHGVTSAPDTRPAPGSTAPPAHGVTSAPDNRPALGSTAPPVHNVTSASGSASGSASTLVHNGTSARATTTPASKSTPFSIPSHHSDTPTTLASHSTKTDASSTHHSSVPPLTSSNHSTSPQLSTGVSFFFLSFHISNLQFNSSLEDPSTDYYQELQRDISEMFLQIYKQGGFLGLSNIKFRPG

Biological target: CA 15-3 (Cancer Antigen 15-3) (UniProt P15941)
Experiment: electrochemical aptasensor (CV, SWV)
Conditions: methylene blue label, PBS, linear 1-9 U/mL, LOD 0.2 U/mL (no Kd); PBS pH 7.4 (0.1 M), room temperature, 35 min incubation; 0.2 mM ferricyanide probe (label-free) or methylene blue in PBS (label-based); single-stranded DNA

Sequence: GAAGTGAATATGACAGATCACAACT [CA 15-3 aptamer]
- binding result: binds
